In publication PMC8143632:
No constants are given. Whether binding was seen depends on the method and setting. In cells and extracts the contact can be indirect. Some entries that bind do so weakly or less than the wild type. Sequences can lack the tags named with a protein.

B1: SUDS3 (protein, UniProt Q9H7L9 1-328)
chain: MSAAGLLAPAPAQAGAPPAPEYYPEEDEELESAEDDERSCRGRESDEDTEDASETDLAKHDEEDYVEMKEQMYQDKLASLKRQLQQLQEGTLQEYQKRMKKLDQQYKERIRNAELFLQLETEQVERNYIKEKKAAVKEFEDKKVELKENLIAELEEKKKMIENEKLTMELTGDSMEVKPIMTRKLRRRPNDPVPIPDKRRKPAPAQLNYLLTDEQIMEDLRTLNKLKSPKRPASPSSPEHLPATPAESPAQRFEARIEDGKLYYDKRWYHKSQAIYLESKDNQKLSCVISSVGANEIWVRKTSDSTKMRIYLGQLQRGLFVIRRRSAA
B2: BRMS1L (protein, UniProt Q5PSV4 1-323)
chain: MPVHSRGDKKETNHHDEMEVDYAENEGSSSEDEDTESSSVSEDGDSSEMDDEDCERRRMECLDEMSNLEKQFTDLKDQLYKERLSQVDAKLQEVIAGKAPEYLEPLATLQENMQIRTKVAGIYRELCLESVKNKYECEIQASRQHCESEKLLLYDTVQSELEEKIRRLEEDRHSIDITSELWNDELQSRKKRKDPFSPDKKKPVVVSGPYIVYMLQDLDILEDWTTIRKAMATLGPHRVKTEPPVKLEKHLHSARSEEGRLYYDGEWYIRGQTICIDKKDECPTSAVITTINHDEVWFKRPDGSKSKLYISQLQKGKYSIKHS
B3: SAP30 (protein, UniProt O75446 1-220)
chain: MNGFTPDEMSRGGDAAAAVAAVVAAAAAAASAGNGTGAGTGAEVPGAGAVSAAGPPGAAGPGPGQLCCLREDGERCGRAAGNASFSKRIQKSISQKKVKIELDKSARHLYICDYHKNLIQSVRNRRKRKGSDDDGGDSPVQDIDTPEVDLYQLQVNTLRRYKRHFKLPTRPGLNKAQLVEIVGCHFRSIPVNEKDTLTYFIYSVKNDKNKSDLKVDSGVH
B4: SAP30L (protein, UniProt Q9HAJ7 1-183)
chain: MNGFSTEEDSREGPPAAPAAAAPGYGQSCCLIEDGERCVRPAGNASFSKRVQKSISQKKLKLDIDKSVRHLYICDFHKNFIQSVRNKRKRKTSDDGGDSPEHDTDIPEVDLFQLQVNTLRRYKRHYKLQTRPGFNKAQLAETVSRHFRNIPVNEKETLAYFIYMVKSNKSRLDQKSEGGKQLE
B5: SIN3B_2-HaloTag (protein, UniProt O75182-2 1-1130)
chain: MAHAGGGSGGSGAGGPAGRGLSGARWGRSGSAGHEKLPVHVEDALTYLDQVKIRFGSDPATYNGFLEIMKEFKSQSIDTPGVIRRVSQLFHEHPDLIVGFNAFLPLGYRIDIPKNGKLNIQSPLTSQENSHNHGDGAEDFKQQVPYKEDKPQVPLESDSVEFNNAISYVNKIKTRFLDHPEIYRSFLEILHTYQKEQLNTRGRPFRGMSEEEVFTEVANLFRGQEDLLSEFGQFLPEAKRSLFTGNGPCEMHSVQKNEHDKTPEHSRKRSRPSLLRPVSAPAKKKMKLRGTKDLSIAAVGKYGTLQEFSFFDKVRRVLKSQEVYENFLRCIALFNQELVSGSELLQLVSPFLGKFPELFAQFKSFLGVKELSFAPPMSDRSGDGISREIDYASCKRIGSSYRALPKTYQQPKCSGRTAICKEVLNDTWVSFPSWSEDSTFVSSKKTPYEEQLHRCEDERFELDVVLETNLATIRVLESVQKKLSRMAPEDQEKFRLDDSLGGTSEVIQRRAIYRIYGDKAPEIIESLKKNPVTAVPVVLKRLKAKEEEWREAQQGFNKIWREQYEKAYLKSLDHQAVNFKQNDTKALRSKSLLNEIESVYDEHQEQHSEGRSAPSSEPHLIFVYEDRQILEDAAALISYYVKRQPAIQKEDQGTIHQLLHQFVPSLFFSQQLDLGASEESADEDRDSPQGQTTDPSERKKPAPGPHSSPPEEKGAFGDAPATEQPPLPPPAPHKPLDDVYSLFFANNNWYFFLRLHQTLCSRLLKIYRQAQKQLLEYRTEKEREKLLCEGRREKGSDPAMELRLKQPSEVELEEYYPAFLDMVRSLLEGSIDPTQYEDTLREMFTIHAYVGFTMDKLVQNIARQLHHLVSDDVCLKVVELYLNEKKRGAAGGNLSSRCVRAARETSYQWKAERCMADENCFKVMFLQRKGQVIMTIELLDTEEAQTEDPVEVQHLARYVEQYVGTEGASSSPTEGFLLKPVFLQRNLKKFRRRWQSEQARALRGEARSSWKRLVGVESACDVDCRFKLSTHKMVFIVNSEDYMYRRGTLCRAKQVQPLVLLRHHQHFEEWHSRWLEDNVTVEAASLVQDWLMGEEDEDMVPCKTLCETVHVHGLPVTRYRVQYSRRPASP
B6: PHF12, Q96QT6 1-1004 (protein)
chain: MWEKMETKTIVYDLDTSGGLMEQIQALLAPPKTDEAEKRSRKPEKEPRRSGRATNHDSCDSCKEGGDLLCCDHCPAAFHLQCCNPPLSEEMLPPGEWMCHRCTVRRKKREQKKELGHVNGLVDKSGKRTTSPSSDTDLLDRSASKTELKAIAHARILERRASRPGTPTSSASTETPTSEQNDVDEDIIDVDEEPVAAEPDYVQPQLRRPFELLIAAAMERNPTQFQLPNELTCTTALPGSSKRRRKEETTGKNVKKTQHELDHNGLVPLPVKVCFTCNRSCRVAPLIQCDYCPLLFHMDCLEPPLTAMPLGRWMCPNHIEHVVLNQKNMTLSNRCQVFDRFQDTVSQHVVKVDFLNRIHKKHPPNRRVLQSVKRRSLKVPDAIKSQYQFPPPLIAPAAIRDGELICNGIPEESQMHLLNSEHLATQAEQQEWLCSVVALQCSILKHLSAKQMPSHWDSEQTEKADIKPVIVTDSSVTTSLQTADKTPTPSHYPLSCPSGISTQNSLSCSPPHQSPALEDIGCSSCAEKSKKTPCGTANGPVNTEVKANGPHLYSSPTDSTDPRRLPGANTPLPGLSHRQGWPRPLTPPAAGGLQNHTVGIIVKTENATGPSSCPQRSLVPVPSLPPSIPSSCASIENTSTLQRKTVQSQIGPPLTDSRPLGSPPNATRVLTPPQAAGDGILATTANQRFSSPAPSSDGKVSPGTLSIGSALTVPSFPANSTAMVDLTNSLRAFMDVNGEIEINMLDEKLIKFLALQRIHQLFPSRVQPSPGSVGTHQLASGGHHIEVQRKEVQARAVFYPLLGLGGAVNMCYRTLYIGTGADMDVCLTNYGHCNYVSGKHACIFYDENTKHYELLNYSEHGTTVDNVLYSCDFSEKTPPTPPSSIVAKVQSVIRRRRHQKQDEEPSEEAAMMSSQAQGPQRRPCNCKASSSSLIGGSGAGWEGTALLHHGSYIKLGCLQFVFSITEFATKQPKGDASLLQDGVLAEKLSLKPHQGPVLRSNSVP

Key:
Assay in all cases: cross-linking; SIN3A-HaloTag or SIN3B_2-HaloTag from Flp-In-293 cells enriched on Magne HaloTag Beads; 5 mM DSSO on the beads, room temperature, 40 min; eluted with AcTEV Protease; cross-linked peptides found by mass spectrometry (XlinkX, FDR 0.01)
[1] = target: T1, SIN3A-HaloTag (human) (UniProt Q96ST3)
T1 sequence: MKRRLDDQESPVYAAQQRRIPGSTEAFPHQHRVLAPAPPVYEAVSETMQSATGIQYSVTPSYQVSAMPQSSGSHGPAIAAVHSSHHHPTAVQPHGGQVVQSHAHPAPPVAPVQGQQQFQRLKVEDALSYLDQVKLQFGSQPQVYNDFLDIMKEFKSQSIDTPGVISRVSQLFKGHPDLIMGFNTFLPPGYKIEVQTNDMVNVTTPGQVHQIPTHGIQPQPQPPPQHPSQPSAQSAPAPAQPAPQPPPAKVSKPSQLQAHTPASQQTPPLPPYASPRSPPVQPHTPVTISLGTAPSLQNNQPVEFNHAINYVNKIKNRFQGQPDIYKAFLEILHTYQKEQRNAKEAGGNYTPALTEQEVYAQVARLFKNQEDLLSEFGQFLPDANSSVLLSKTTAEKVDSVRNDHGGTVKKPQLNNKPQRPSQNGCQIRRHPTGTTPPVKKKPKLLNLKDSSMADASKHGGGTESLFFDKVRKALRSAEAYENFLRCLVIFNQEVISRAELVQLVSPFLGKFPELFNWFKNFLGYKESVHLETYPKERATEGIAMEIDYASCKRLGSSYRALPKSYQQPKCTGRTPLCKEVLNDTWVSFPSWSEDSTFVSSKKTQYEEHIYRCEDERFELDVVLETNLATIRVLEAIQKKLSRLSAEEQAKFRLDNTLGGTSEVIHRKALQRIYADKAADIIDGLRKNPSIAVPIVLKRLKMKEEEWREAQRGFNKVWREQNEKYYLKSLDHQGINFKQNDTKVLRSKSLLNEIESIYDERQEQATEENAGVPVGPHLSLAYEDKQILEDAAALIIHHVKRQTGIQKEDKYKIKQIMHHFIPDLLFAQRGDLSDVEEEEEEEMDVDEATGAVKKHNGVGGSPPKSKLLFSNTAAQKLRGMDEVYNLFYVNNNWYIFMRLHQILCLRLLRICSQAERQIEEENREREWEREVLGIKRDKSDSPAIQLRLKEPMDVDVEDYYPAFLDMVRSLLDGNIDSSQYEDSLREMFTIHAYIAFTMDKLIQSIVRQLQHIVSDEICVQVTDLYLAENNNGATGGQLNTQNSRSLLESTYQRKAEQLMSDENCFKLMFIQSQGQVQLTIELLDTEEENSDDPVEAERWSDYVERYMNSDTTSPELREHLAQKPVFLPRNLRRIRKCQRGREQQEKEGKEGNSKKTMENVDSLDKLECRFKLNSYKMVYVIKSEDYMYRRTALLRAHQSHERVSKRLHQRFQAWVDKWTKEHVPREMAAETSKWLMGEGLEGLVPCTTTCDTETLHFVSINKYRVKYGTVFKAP

[2] = target: T2, SIN3B_2-HaloTag (human) (UniProt O75182)
T2 sequence: B5 chain

[3] = target: T3, SIN3A-HaloTag (human), Q96ST3; settings: remark: other sources report otherwise
T3 chain: T1 sequence

Row | Binder | binding [1] | binding [2] | binding [3]
1 | B1 | binds | binds | 
2 | B2 | binds | binds | 
3 | B3 | binds |  | 
4 | B4 | binds |  | 
5 | B5 |  | binds | 
6 | B6 |  |  | no binding
